Assay results published in article doi:10.1101/2021.07.07.451444.
Read-outs that look alike come from different tables or passages of the source. No constants are given. Whether binding was seen depends on the method and setting. In cells and extracts the contact can be indirect. Here binding means that the protein was enriched with, or labelled near, the bait; the list need not be complete. Each block holds one binder with its values, some of them ahead of it.

Chains of the proteins cited; added tags and fusions are not shown.
UniProt Q9HAU5: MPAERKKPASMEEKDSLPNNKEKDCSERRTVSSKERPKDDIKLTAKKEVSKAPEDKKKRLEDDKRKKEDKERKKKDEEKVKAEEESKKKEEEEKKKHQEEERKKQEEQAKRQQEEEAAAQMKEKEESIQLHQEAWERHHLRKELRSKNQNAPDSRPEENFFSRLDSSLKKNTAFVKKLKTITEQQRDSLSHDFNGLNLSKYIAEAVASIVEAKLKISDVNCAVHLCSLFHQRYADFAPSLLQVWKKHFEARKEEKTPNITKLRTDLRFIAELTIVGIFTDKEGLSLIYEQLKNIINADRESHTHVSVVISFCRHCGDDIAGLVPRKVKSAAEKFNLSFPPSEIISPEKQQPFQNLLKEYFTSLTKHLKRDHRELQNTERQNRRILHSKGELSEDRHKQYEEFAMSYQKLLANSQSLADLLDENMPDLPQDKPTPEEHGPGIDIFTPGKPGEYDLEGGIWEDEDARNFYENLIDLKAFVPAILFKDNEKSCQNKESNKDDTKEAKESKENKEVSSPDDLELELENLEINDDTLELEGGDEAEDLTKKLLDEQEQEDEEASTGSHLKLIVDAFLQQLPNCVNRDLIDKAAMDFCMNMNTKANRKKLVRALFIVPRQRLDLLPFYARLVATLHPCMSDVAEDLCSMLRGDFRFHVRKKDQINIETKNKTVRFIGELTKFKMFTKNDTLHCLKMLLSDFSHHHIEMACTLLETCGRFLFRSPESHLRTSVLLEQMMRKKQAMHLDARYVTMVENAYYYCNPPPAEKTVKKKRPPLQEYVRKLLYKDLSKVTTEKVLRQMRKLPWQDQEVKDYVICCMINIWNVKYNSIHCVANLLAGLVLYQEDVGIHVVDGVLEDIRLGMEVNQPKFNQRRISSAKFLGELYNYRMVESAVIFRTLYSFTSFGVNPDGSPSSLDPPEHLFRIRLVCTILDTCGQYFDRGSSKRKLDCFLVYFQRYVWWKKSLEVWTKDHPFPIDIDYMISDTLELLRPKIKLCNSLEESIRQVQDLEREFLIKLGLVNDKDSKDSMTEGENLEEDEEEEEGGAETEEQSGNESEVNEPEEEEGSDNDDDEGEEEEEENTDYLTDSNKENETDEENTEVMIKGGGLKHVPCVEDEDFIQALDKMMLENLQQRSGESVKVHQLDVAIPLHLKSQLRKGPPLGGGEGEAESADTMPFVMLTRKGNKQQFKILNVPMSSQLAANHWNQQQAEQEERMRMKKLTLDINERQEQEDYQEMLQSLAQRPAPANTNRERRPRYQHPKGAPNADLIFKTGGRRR

Legend:
[1] = biological target: FLAG-tagged UPF2 (UniProt Q9HAU5); assay: affinity purification with mass spectrometry
[2] = biological target: FLAG-tagged UPF2 (UniProt Q9HAU5); assay: affinity purification with mass spectrometry; remark: listed apart in the source

binding [1]: binds
B1: UPF3B (protein, UniProt Q9BZI7-2 1-470)
chain: MKEEKEHRPKEKRVTLLTPAGATGSGGGTSGDSSKGEDKQDRNKEKKEALSKVVIRRLPPTLTKEQLQEHLQPMPEHDYFEFFSNDTSLYPHMYARAYINFKNQEDIILFRDRFDGYVFLDNKGQEYPAIVEFAPFQKAAKKKTKKRDTKVGTIDDDPEYRKFLESYATDNEKMTSTPETLLEEIEAKNRELIAKKTTPLLSFLKNKQRMREEKREERRRREIERKRQREEERRKWKEEEKRKRKDIEKLKKIDRIPERDKLKDEPKIKLLKKPEKGDEKELDKREKAKKLDKENLSDERASGQSCTLPKRSDSELKDEKPKRPEDESGRDYREREREYERDQERILRERERLKRQEEERRRQKERYEKEKTFKRKEEEMKKEKDTLRDKGKKAESTESIGSSEKTEKKEEVVKRDRIRNKDRPAMQLYQPGARSRNRLCPPDDSTKSGDSAAERKQESGISHRKEGGEE

binding [1]: binds | binding [2]: binds
B2: UPF3A (protein, UniProt Q9H1J1-1 1-476)
chain: MRSEKEGAGGLRAAVAARGPSGREKLSALEVQFHRDSQQQEAETPPTSSSGCGGGAGKPREEKRTALSKVVIRRLPPGLTKEQLEEQLRPLPAHDYFEFFAADLSLYPHLYSRAYINFRNPDDILLFRDRFDGYIFLDSKGLEYPAVVEFAPFQKIAKKKLRKKDAKTGSIEDDPEYKKFLETYCVEEEKTSANPETLLGEMEAKTRELIARRTTPLLEYIKNRKLEKQRIREEKREERRRRELEKKRLREEEKRRRREEERCKKKETDKQKKIAEKEVRIKLLKKPEKGEEPTTEKPKERGEEIDTGGGKQESCAPGAVVKARPMEGSLEEPQETSHSGSDKEHRDVERSQEQESEAQRYHVDDGRRHRAHHEPERLSRRSEDEQRWGKGPGQDRGKKGSQDSGAPGEAMERLGRAQRCDDSPAPRKERLANKDRPALQLYDPGARFRARECGGNRRICKAEGSGTGPEKREEAE
